# Laboratory results as given in PubChem BioAssay AID2685 (National Center for Advancing Translational Sciences (NCATS), 2010).
# This is one part of the list. These are further read-outs of the screen, such as a control signal, another cell line or another target. No call is given for them. Compounds called inactive in the main read-out are mostly missing here. The note in brackets gives the kind of curve behind each potency; many fits are weak.
# Test: qHTS Assay for Lipid Storage Modulators in Drosophila S3 Cells;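 for cell number change: cells counted by Cell Tracker Red CMTPX staining in the red channel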
# Conditions: BODIPY lipid droplet fluorescence, 18-24 h; for cell number change: measured here: cell count max response, cells fed with added oleic acid
# Outline: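 Laser-scanning cytometry quantifies lipid droplet accumulation (500–530 nm total intensity; droplet/cell object ratio) in oleic acid-fed (400 uM added) Drosophila S3 cells treated with a concentration series. 20 uM Triacsin C defined 100% inhibition.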
# [1] = measured here: lipid fluorescence (Fed channel) AC50, cells fed with added oleic acid
# [2] = measured here: cell number channel AC50, cells fed with added oleic acid
Structure (SMILES),cell number change [%],AC50 [1],AC50 [2]
CN(CC(=O)Nc1cc(S(=O)(=O)N2CCCCCC2)ccc1Cl)Cc1ccc2c(c1)OCO2,24.6,"18.4 µM [rising, single point]",
Cn1c(CNC(=O)CNC(=O)c2ccc(C(C)(C)C)cc2)cc(=O)n(C)c1=O,33.4,,
CN1CCN(C(=O)CC23CC4CC(CC(C4)C2)C3)CC1,-23.5,"0.00164 µM [falling, full curve, poor fit]",
CC1=C(C(=O)Nc2ccc(C)cc2C)C(c2cccc([N+](=O)[O-])c2)n2nc(C(=O)OC(C)C)nc2N1 (stereo not given),-21,"4.11 µM [falling, single point]",
COc1ccc2c(c1)c1nc3n(c(=O)c1n2CC(=O)Nc1ccccc1)CCS3,,"0.116 µM [rising, single point]",
COc1ccc(NC(=O)CSc2nnnn2-c2ccc(OC)cc2)cc1,10.5,,
Cc1ccc(CNC(=O)CSc2nnc(CNC(=O)c3ccccc3)o2)cc1,-48.7,"12.6 µM [falling, partial curve]","11.2 µM [falling, single point]"
CCOC(=O)C1=C(c2ccccc2)NC(=S)NC1c1ccc(Cl)cc1 (stereo not given),25.8,"2.06 µM [rising, partial curve]","0.92 µM [rising, full curve, poor fit]"
N#C/C(=C\c1ccco1)c1nc2ccccc2s1,-6.17,"14.6 µM [falling, partial curve, poor fit]",
CC(C)c1nc(SCC(=O)c2ccc(F)cc2)c2ccccc2n1,4.13,"2.06 µM [rising, partial curve, poor fit]",
COc1cc(C)ccc1OCCOCCOc1ccc(C)cc1[N+](=O)[O-],-35.9,"14.6 µM [rising, single point]","32.6 µM [falling, single point]"
COc1ccc(N2CCN(CCCNS(=O)(=O)c3c(C)noc3/C=C/N(C)C)CC2)cc1,30.6,,"32.6 µM [rising, single point]"
CCCn1c(CC)nc([N+](=O)[O-])c1S(=O)(=O)c1ccccc1,-38,"9.2 µM [falling, partial curve]","16.4 µM [falling, single point]"
CCc1nnc(NC(=O)c2nc3nc(C)cc(C)n3n2)s1,-15.6,"23.1 µM [falling, single point]",
CC(C)CN(C(=O)c1cccc(S(=O)(=O)N2CCN(c3ccc(F)cc3)CC2)c1)C1CCS(=O)(=O)C1 (stereo not given),92.5,,"18.4 µM [rising, partial curve]"
CCOC(=O)c1ccc(Nc2nnc(C)c3ccccc23)cc1,20.6,,"1.3 µM [rising, full curve, poor fit]"
COCCCN1Cc2cccc(C(=O)O)c2C1=O,35.1,,"0.103 µM [rising, full curve, poor fit]"
O=C(O)Cc1ccc2[nH]c3ccc(CC(=O)O)cc3c2c1,16.4,"29.1 µM [rising, single point]",
Nc1c(C(=O)O)nnn1Cc1ccccc1,-44.5,"16.4 µM [rising, partial curve, poor fit]","11.6 µM [falling, partial curve, poor fit]"
Cc1ccc(NC(=O)CN2C(=O)COc3ccc(S(=O)(=O)N4CCOCC4)cc32)cc1F,25.5,"2.59 µM [rising, partial curve]",

Structure (SMILES),cell number change [%],AC50 [1],AC50 [2]
O=C(c1ccc(COc2ccc(Cl)cc2)cc1)N1CCCCC1,24.3,,"0.184 µM [rising, full curve, poor fit]"
COc1ccc(/C=N/NC(=O)CCn2c3ccccc3c3ccccc32)cc1O,-99.2,,"23.1 µM [falling, single point]"
O=C(NCCCN1CCOCC1)C1CCC(=O)N1C1CCCCC1 (stereo not given),1.46,"0.00517 µM [falling, full curve, poor fit]",
COc1ccc(NC(=O)N(Cc2ccc3c(c2)OCO3)C2CC(=O)N(c3ccc(OC)cc3)C2=O)cc1 (stereo not given),45.8,"6.51 µM [rising, single point]","4.11 µM [rising, full curve]"
COc1ccccc1NC(NC(=O)c1ccco1)C(=O)c1ccccc1 (stereo not given),-1.41,"0.366 µM [rising, full curve]",
COc1ccc(NC(=O)C2CCN(S(=O)(=O)c3ccc(C)cc3)CC2)cc1OC,-6.52,,
Cc1ccc(C2SCC(C(=O)O)N2C(=O)c2ccc(F)cc2)cc1 (stereo not given),1.11,"14.6 µM [falling, single point]",
COc1cc(CNCc2ccco2)ccc1OCc1ccccc1,30.4,"6.51 µM [falling, single point]","4.11 µM [rising, partial curve, poor fit]"
COC(=O)c1c(C)oc(C)c1S(=O)(=O)NCc1ccc(Cl)cc1,40.5,,"20.6 µM [rising, single point]"
Cc1ccc2cc(C)c3nnc(SCC(=O)N4CCN(C(=O)c5ccco5)CC4)n3c2c1,16.6,,
Cc1cc(NC(=O)CN2C(=O)NC(CC(C)C)C2=O)ccc1Br (stereo not given),-5.27,"29.1 µM [falling, single point]",
Cc1ccc(C(=O)NCc2cccnc2)cc1S(=O)(=O)N1CCCCCC1,2.29,"0.00411 µM [rising, full curve, poor fit]",
O=C(Nc1ccccc1)c1cccc(-c2nnc(-c3ccccc3)o2)c1,,,"0.58 µM [rising, single point]"
CCn1c(SCC(=O)c2cc(OC)ccc2OC)nnc1C(C)C,,"29.1 µM [falling, single point]",
CCCCCCCCNC(=O)/C(C#N)=C/c1ccccc1[N+](=O)[O-],-67.6,"5.8 µM [falling, partial curve]","10.3 µM [falling, partial curve, poor fit]"
O=C(CNC(=O)C1CCCCC1)NC1=NCCS1,-3.43,"2.91 µM [rising, single point]",
CN(C)Cc1c(C(=O)N/N=C/c2cccs2)nnn1-c1nonc1N,-4.27,"32.6 µM [rising, single point]",
Cc1ccc(C)c(S(=O)(=O)Nc2cc(SCC(=O)O)c(O)c3ccccc23)c1,-46.2,"3.66 µM [rising, full curve]","1.84 µM [falling, full curve]"
CCOC(=O)c1cc(CC)sc1/N=C/C1C(=O)CCCC1=O,,"0.0103 µM [rising, full curve, poor fit]",
COCCOC1CCN(C(=O)C2CCC(=O)N(CCc3cccc(F)c3)C2)CC1 (stereo not given),5.34,,

Structure (SMILES),cell number change [%],AC50 [1],AC50 [2]
COc1ccccc1Nc1nc(N)nc(CN2CCC(C)CC2)n1,28.8,"0.00517 µM [rising, full curve, poor fit]",
Cn1cc(S(=O)(=O)Nc2ccc(F)c(Cl)c2)c(=O)n(C)c1=O,12.1,"0.58 µM [rising, single point]","0.82 µM [rising, full curve, poor fit]"
CC(=O)NC(CC(=O)NCC(=O)Nc1ccc(F)c(F)c1)c1ccccc1 (stereo not given),18.1,"0.206 µM [falling, full curve, poor fit]",
COC(=O)/C(=C(/F)SCC(C)=O)C(F)(F)F,-1.26,"16.4 µM [falling, partial curve]",
Clc1ccc(/C=N/c2c(-c3ccco3)nc3ccccn23)cc1,71.9,,"11.6 µM [rising, partial curve]"
O=C(CCc1ccc(S(=O)(=O)N2CCOCC2)cc1)N/N=C/c1cccc(O)c1,2.07,,
Cc1cccc(C)c1OCCCCc1c(C)n[nH]c1C,-58.5,"29.1 µM [falling, single point]","32.6 µM [falling, single point]"
CC(/C=C/c1ccc(N(C)C)cc1)=N\N=C1\NC(=O)CC(C(=O)Nc2ccccc2)S1 (stereo not given),7.71,"32.6 µM [falling, single point]",
COc1ccc(-c2[nH]c(-c3ccc(SC)cc3)nc2SCC(=O)Nc2nccs2)cc1,-41.4,,"4.61 µM [falling, full curve, poor fit]"
Cc1cc(C)c(S(=O)(=O)N2CCCC(C(=O)N3CCOCC3)C2)c(C)c1 (stereo not given),15.8,"6.51 µM [rising, single point]","3.26 µM [rising, single point]"
N/C(=N\OC(=O)COc1ccc(Br)cc1Cl)c1ccccn1,16.5,,
Cc1ccccc1NS(=O)(=O)c1ccc(C(=O)N2CCN(S(=O)(=O)c3ccccc3)CC2)cc1,,"9.2 µM [falling, partial curve, poor fit]",
COc1cc([N+](=O)[O-])cc(/C=N/NC(=O)c2cc(C)nc3ccccc23)c1O,31.6,,
Cn1ncc(Br)c1C(=O)NC1CCCCCCC1,-19.1,,
CCCC1OC23CCCCC2C(C#N)(C#N)C1(C#N)C(=N)O3 (stereo not given),92.3,"29.1 µM [rising, single point]","29.1 µM [rising, single point]"
COCc1cc(CN2CCCC(C(=O)Nc3ccc(-c4ccco4)cc3)C2)ccc1OC (stereo not given),26.7,,
Cc1noc(C)c1C(=O)OCC(=O)Nc1ccccc1C(=O)NC(C)c1ccccc1 (stereo not given),17,"2.31 µM [rising, full curve, poor fit]",
Cc1c(N=C2SCC(=O)N2c2c(C)n(C)n(-c3ccccc3)c2=O)c(=O)n(-c2ccccc2)n1C,-11.3,"3.26 µM [falling, single point]","6.51 µM [falling, single point]"

# Ordered by molecular weight (largest number first): part of the list above
Structure (SMILES),cell number change [%],AC50 [1],AC50 [2]
CC(/C=C/c1ccc(N(C)C)cc1)=N\N=C1\NC(=O)CC(C(=O)Nc2ccccc2)S1 (stereo not given),7.71,"32.6 µM [falling, single point]",
Cc1cc(C)c(S(=O)(=O)N2CCCC(C(=O)N3CCOCC3)C2)c(C)c1 (stereo not given),15.8,"6.51 µM [rising, single point]","3.26 µM [rising, single point]"
COc1cc([N+](=O)[O-])cc(/C=N/NC(=O)c2cc(C)nc3ccccc23)c1O,31.6,,
CC(=O)NC(CC(=O)NCC(=O)Nc1ccc(F)c(F)c1)c1ccccc1 (stereo not given),18.1,"0.206 µM [falling, full curve, poor fit]",
